In article PMC10958042:
Results are given in words; binding and its absence hold for the method and conditions named. Binding seen in cells or lysates may run through a third protein. Some binding calls cover weakened binding; strength is not graded here. Tags and fused reporters may be left off the sequences shown.

Columns and labels:
Experiment in all cases: co-IP; LUMIER luminescence-based co-immunoprecipitation: Protein A-ATGL variant and firefly-luciferase partner co-expressed in HEK293T, SDS-free RIPA2 lysate precipitated in IgG-coated plates 2 h at 4 °C, luminescence read; log2 fold change against wild-type ATGL, two experiments in triplicate
[1] = biological target: T1, Protein A-ATGL I70A (human) (UniProt Q96AD5)
T1 sequence: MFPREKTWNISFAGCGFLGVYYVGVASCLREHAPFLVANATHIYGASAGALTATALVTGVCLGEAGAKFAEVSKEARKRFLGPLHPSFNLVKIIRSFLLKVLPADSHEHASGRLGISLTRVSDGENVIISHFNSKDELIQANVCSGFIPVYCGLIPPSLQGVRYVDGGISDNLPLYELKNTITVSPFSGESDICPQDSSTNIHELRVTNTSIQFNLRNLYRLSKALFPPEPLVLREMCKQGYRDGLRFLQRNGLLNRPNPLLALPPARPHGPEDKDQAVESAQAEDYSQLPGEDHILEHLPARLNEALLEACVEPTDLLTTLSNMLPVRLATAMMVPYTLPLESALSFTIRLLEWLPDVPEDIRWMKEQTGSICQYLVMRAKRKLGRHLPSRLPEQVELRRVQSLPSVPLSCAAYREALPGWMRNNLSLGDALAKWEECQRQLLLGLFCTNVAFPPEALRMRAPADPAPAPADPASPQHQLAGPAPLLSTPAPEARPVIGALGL

[2] = biological target: T2, Protein A-ATGL wild type (human) (human) (UniProt Q96AD5)
T2 sequence: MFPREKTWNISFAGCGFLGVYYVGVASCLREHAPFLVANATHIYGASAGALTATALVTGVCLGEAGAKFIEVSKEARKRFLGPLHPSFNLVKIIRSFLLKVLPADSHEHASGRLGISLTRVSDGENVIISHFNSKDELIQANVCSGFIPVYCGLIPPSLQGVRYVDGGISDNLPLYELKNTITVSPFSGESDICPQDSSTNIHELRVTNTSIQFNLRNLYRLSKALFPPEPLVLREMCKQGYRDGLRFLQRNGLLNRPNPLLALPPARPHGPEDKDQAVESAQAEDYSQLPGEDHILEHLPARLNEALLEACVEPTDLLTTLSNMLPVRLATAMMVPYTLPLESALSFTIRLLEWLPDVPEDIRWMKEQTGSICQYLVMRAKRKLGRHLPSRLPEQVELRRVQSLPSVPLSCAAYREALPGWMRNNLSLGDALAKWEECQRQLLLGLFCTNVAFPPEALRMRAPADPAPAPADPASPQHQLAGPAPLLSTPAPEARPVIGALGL

[3] = biological target: T3, Protein A-ATGL N39E (human) (UniProt Q96AD5)
T3 sequence: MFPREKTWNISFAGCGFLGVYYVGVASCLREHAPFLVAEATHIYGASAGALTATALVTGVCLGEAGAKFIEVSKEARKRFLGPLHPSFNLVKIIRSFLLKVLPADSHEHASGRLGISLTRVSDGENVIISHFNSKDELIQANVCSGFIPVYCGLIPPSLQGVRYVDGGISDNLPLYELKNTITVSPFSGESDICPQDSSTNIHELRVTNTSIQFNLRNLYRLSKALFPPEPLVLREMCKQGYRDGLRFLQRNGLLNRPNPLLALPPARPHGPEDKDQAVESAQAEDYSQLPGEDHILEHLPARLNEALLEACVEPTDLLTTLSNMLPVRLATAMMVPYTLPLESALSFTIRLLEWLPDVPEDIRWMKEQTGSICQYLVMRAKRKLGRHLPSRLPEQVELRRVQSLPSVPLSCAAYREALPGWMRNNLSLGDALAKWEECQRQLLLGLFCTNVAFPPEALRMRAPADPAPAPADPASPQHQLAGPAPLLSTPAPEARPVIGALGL

[4] = biological target: T4, Protein A-ATGL P103K (human) (UniProt Q96AD5)
T4 sequence: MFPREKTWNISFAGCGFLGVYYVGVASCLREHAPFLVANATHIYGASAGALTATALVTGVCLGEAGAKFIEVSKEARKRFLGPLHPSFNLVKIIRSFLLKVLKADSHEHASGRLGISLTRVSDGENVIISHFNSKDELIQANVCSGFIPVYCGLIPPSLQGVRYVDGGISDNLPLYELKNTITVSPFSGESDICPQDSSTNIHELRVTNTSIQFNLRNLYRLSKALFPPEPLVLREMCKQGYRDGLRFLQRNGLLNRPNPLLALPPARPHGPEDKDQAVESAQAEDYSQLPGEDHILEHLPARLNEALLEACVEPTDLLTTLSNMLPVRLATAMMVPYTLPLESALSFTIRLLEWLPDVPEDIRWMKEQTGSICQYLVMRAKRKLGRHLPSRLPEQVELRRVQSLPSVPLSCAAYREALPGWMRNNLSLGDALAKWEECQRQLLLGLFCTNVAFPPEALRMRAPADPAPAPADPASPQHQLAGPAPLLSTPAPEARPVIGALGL

Measured: binding

B1: CGI-58 wild type, firefly-luciferase fusion (protein, UniProt Q8WTS1 1-349)
chain: MAAEEEEVDSADTGERSGWLTGWLPTWCPTSISHLKEAEEKMLKCVPCTYKKEPVRISNGNKIWTLKFSHNISNKTPLVLLHGFGGGLGLWALNFGDLCTNRPVYAFDLLGFGRSSRPRFDSDAEEVENQFVESIEEWRCALGLDKMILLGHNLGGFLAAAYSLKYPSRVNHLILVEPWGFPERPDLADQDRPIPVWIRALGAALTPFNPLAGLRIAGPFGLSLVQRLRPDFKRKYSSMFEDDTVTEYIYHCNVQTPSGETAFKNMTIPYGWAKRPMLQRIGKMHPDIPVSVIFGARSCIDGNSGTSIQSLRPHSYVKTIAILGAGHYVYADQPEEFNQKVKEICDTVD
binds: all assays above

B2: murine Plin5 wild type, firefly-luciferase fusion (protein, UniProt Q8BVZ1 1-463)
chain: MDQRGEDTTLAPHSRMSGDQTAQDPGSSLGELDQQNVVNRVVALPLVKATCTAVSSAYNSAKDRHPLLGSACRLAEHCVCSVTTCALDHAQPLLEHLQPQLATVNDLACRGLDKLEEKLPFLQQPSDMVVTSAKDTVAKSVTGMVDLAQRGRRWSGELRRSMSQAMDMVLGKSEKLVDRFLPMTEAELAVLAAEAEGPEVGTVEEQRQQQGYFVRLGSLSARLRHLAYEHSLGKLRQSKHRTQEMLAQLQETLELIQHMQRGASPSPTFHPPKTQELWGSWSPCLENGRSHSEVELETLALSRSLTLELQNAVDALAGCVRGLPPSAQAKVAEVQRSVDALQATFADAHCLGDVAPTALAEGRGSVARAHACVDEFLDLVLRAMPLPWLVGPFAPILVEQSEPLINLATCVDEVVGDPDPRWAHMDWPAQKRAWEAESADPGGQEAEPPRGQGKHTMMPELDF
binds: [2] | [3] | [4]

B3: G0S2 wild type, firefly-luciferase fusion (protein, UniProt P27469 1-103)
chain: METVQELIPLAKEMMAQKRKGKMVKLYVLGSVLALFGVVLGLMETVCSPFTAARRLRDQEAAVAELQAALERQALQKQALQEKGKQQDTVLGGRALSNRQHAS
binds: [1] | [2] | [4]

B4: CIDEC wild type, firefly-luciferase fusion (protein, UniProt Q96AQ7 1-238)
chain: MEYAMKSLSLLYPKSLSRHVSVRTSVVTQQLLSEPSPKAPRARPCRVSTADRSVRKGIMAYSLEDLLLKVRDTLMLADKPFFLVLEEDGTTVETEEYFQALAGDTVFMVLQKGQKWQPPSEQGTRHPLSLSHKPAKKIDVARVTFDLYKLNPQDFIGCLNVKATFYDTYSLSYDLHCCGAKRIMKEAFRWALFSMQATGHVLLGTSCYLQQLLDATEEGQPPKGKASSLIPTCLKILQ
binds: all assays above

B5: murine Plin1 wild type, firefly-luciferase fusion (protein, UniProt Q8CGN5 1-517)
chain: MSMNKGPTLLDGDLPEQENVLQRVLQLPVVSGTCECFQKTYNSTKEAHPLVASVCNAYEKGVQGASNLAAWSMEPVVRRLSTQFTAANELACRGLDHLEEKIPALQYPPEKIASELKGTISTRLRSARNSISVPIASTSDKVLGATLAGCELALGMAKETAEYAANTRVGRLASGGADLALGSIEKVVEFLLPPDKESAPSSGRQRTQKAPKAKPSLVRRVSTLANTLSRHTMQTTAWALKQGHSLAMWIPGVAPLSSLAQWGASAAMQVVSRRQSEVRVPWLHNLAASQDESHDDQTDTEGEETDDEEEEEESEAEENVLREVTALPNPRGLLGGVVHTVQNTLRNTISAVTWAPAAVLGTVGRILHLTPAQAVSSTKGRAMSLSDALKGVTDNVVDTVVHYVPLPRLSLMEPESEFRDIDNPSAEAERKGSGARPASPESTPRPGQPRGSLRSVRGLSAPSCPGLDDKTEASARPGFLAMPREKPARRVSDSFFRPSVMEPILGRAQYSQLRKKS
binds: [1] | [2] | [3]
